# These are yes or no findings as the source states them, for the method shown. Binding seen in cells or lysates may run through a third protein. Some results given as binding are weak or reduced against the parent protein; the word gives no strength.
# Sequences of proteins named here, by UniProt entry; tags and fusion partners are left off. Residues count along the entry.
# UniProt Q8N122: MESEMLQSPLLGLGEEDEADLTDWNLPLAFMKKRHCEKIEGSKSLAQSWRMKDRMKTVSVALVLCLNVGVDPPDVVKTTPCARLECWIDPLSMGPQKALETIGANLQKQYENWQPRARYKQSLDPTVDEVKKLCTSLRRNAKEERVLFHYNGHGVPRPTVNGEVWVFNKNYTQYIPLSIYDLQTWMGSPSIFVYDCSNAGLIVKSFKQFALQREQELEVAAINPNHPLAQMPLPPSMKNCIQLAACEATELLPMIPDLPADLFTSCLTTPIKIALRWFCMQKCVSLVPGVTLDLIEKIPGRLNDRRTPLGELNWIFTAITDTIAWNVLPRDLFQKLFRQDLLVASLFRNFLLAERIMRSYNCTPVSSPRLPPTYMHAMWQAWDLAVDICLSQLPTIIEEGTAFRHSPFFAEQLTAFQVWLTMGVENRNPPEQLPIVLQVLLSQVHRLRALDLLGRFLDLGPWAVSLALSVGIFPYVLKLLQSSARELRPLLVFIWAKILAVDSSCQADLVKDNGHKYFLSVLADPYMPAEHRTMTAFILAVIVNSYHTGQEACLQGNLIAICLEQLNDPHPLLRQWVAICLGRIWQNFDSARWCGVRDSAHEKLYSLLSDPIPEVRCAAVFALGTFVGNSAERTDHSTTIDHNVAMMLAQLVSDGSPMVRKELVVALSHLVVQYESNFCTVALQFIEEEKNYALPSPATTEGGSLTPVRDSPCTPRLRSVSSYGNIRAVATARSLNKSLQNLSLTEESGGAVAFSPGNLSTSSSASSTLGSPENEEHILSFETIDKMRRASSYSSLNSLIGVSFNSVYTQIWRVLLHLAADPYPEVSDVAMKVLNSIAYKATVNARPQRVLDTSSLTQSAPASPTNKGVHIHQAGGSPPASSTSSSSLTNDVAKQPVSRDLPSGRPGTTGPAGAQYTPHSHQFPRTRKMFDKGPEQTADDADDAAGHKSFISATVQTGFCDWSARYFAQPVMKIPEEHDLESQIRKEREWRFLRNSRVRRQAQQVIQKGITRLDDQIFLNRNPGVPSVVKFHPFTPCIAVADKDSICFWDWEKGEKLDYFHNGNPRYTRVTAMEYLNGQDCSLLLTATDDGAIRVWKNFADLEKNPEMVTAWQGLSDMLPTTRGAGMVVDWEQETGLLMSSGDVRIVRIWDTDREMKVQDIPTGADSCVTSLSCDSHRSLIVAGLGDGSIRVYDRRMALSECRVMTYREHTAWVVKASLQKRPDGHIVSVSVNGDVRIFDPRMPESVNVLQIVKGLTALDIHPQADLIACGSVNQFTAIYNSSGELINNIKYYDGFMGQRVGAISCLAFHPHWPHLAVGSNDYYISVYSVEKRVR
# UniProt O60934: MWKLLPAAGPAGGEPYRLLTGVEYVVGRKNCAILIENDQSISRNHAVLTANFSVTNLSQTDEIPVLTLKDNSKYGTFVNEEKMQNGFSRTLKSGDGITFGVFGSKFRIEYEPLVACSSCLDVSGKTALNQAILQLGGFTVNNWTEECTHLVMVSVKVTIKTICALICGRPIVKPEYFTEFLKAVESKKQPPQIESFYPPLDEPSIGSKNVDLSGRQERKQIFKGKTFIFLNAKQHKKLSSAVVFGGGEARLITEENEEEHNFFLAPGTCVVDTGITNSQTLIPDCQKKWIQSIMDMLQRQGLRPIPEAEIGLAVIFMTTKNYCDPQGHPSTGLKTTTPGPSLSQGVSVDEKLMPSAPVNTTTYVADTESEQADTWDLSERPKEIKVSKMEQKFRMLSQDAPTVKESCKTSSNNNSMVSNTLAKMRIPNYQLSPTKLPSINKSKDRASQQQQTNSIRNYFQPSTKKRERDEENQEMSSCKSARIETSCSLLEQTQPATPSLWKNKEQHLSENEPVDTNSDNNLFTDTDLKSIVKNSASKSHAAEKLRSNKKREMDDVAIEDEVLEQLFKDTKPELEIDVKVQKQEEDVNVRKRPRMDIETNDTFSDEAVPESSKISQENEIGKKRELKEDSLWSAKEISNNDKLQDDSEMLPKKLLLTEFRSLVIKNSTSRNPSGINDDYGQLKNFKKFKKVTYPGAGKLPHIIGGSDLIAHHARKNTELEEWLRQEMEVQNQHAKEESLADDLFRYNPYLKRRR
# UniProt Q6R327, residues 1-789: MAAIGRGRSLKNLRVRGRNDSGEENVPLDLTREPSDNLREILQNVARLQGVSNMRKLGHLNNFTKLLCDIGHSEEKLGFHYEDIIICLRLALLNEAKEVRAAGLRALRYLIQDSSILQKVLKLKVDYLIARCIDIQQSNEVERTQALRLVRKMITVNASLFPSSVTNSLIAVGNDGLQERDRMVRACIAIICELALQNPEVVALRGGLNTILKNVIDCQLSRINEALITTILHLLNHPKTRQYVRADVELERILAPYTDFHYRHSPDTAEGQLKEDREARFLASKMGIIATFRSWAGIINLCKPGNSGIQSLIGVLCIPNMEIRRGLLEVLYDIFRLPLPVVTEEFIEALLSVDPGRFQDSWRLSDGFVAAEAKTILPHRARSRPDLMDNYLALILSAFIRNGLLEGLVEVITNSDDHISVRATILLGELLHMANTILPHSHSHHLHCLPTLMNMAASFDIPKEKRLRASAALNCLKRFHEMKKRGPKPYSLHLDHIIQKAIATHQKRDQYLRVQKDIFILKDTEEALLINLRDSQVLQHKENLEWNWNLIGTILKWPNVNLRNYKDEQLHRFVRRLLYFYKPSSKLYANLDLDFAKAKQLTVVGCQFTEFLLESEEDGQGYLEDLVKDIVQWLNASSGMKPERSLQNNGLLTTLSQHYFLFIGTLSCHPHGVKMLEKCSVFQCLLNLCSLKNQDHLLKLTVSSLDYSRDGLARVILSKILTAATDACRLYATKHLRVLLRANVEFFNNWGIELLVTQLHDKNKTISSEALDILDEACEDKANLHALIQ
# Assays:
# [1] = biological target: Raptor (endogenous, H1299) (human (endogenous in H1299)) (UniProt Q8N122); assay: co-IP; endogenous proteins, whole cell extracts of H1299 cells; anti-NBS1 or anti-Raptor antibody, protein-A beads; Western blot
# Flag-NBS1 full length = Flag-NBS1 full length (UniProt O60934); assay: co-IP; whole cell extracts of 293T cells overexpressing both proteins; lysis in 150 mM NaCl, 1% Nonidet P-40, 1% deoxycholate, 0.1% SDS, 50 mM Tris.HCl pH 7.5; protein-A beads; washed 3 times with TNTG buffer; Western blot
Substance,binding [1],binding (Flag-NBS1 full length)
"NBS1 (endogenous, H1299) (from UniProt O60934 1-754)",no binding,–
Myc-Rictor1-789 (pCMV-Myc-Rictor 1-789) (from UniProt Q6R327 1-789) (domain or fragment),–,binds
